Measured values as given in publication PMC12386809, “Phenanthrene Monomers and Dimers from Juncus tenuis with Antiproliferative Activity and Synergistic Effect with Doxorubicin Against Human Colon Cancer Cell Lines” (International Journal of Molecular Sciences, 2025).

How the values were obtained:
Type in all cases: cell-based
[1] = test system: COLO 205 (doxorubicin-sensitive) human colonic adenocarcinoma cells; test: MTT antiproliferative assay, COLO 205; conditions: selectivity index, ratio of IC50 CCD-19Lu / COLO 205
Description: (§1) The antiproliferative effects of the isolated phenanthrenes (compounds 1–19) were evaluated using human cancer cell lines, including doxorubicin-sensitive colonic adenocarcinoma COLO 205 and multidrug-resistant colonic adenocarcinoma COLO 320/MDR-LRP (which expresses P-glycoprotein [MDR1] and LRP), as well as non-cancerous human lung fibroblast CCD-19Lu cells. CCD-19Lu was chosen because it is a well-characterized, non-tumorigenic cell line commonly used to assess general cytotoxicity. Moreover, data from the literature support the use of lung fibroblast cell lines—including CCD-19Lu—as normal controls in studies involving colon cancer cells such as Colo 205 and Colo 320 [33]. The thiazolyl blue tetrazolium bromide (MTT) assay was employed to determine the concentration of each compound required to inhibit 50% of the cell viability (IC50), as summarized in Table 3.
(§2) The human colon adenocarcinoma cells—COLO 205 (CCL-222, doxorubicin-sensitive) and COLO 320/MDR-LRP (ATCC-CCL-220.1, multidrug-resistant, expressing P-gp)—were cultured in RPMI 1640 medium supplemented with 10% heat-inactivated fetal bovine serum, 2 mM of L-glutamine, 1 mM of sodium pyruvate, and 100 mM of HEPES. The non-cancerous human lung fibroblast cell line CCD-19Lu was maintained in Eagle’s Minimal Essential Medium (EMEM; containing 4.5 g/L of glucose) supplemented with a non-essential amino acid mixture, selected vitamins, and 10% heat-inactivated fetal bovine serum. All of the cell lines were detached using 0.25% trypsin and 0.02% EDTA for 5 min at 37 °C. The cell lines were obtained from LGC Promochem (Teddington, England).
(§3) Human colonic adenocarcinoma cell lines—doxorubicin-sensitive COLO 205 and multidrug-resistant COLO 320—as well as the non-cancerous human lung fibroblast cell line CCD-19Lu were used to evaluate the effects of the test compounds on cell proliferation. The assays were conducted in 96-well flat-bottomed microtiter plates. Stock solutions of the compounds were prepared in dimethyl sulfoxide (DMSO), with the final DMSO concentration kept below 1% in all samples. The compounds were diluted in 100 µL of the appropriate culture medium. Adherent cells were cultured in EMEM supplemented with 10% heat-inactivated fetal bovine serum and seeded into 96-well plates at a density of 6 × 10^3 cells per 100 µL per well. The cells were allowed to adhere for 24 h at 37 °C in a humidified incubator with 5% CO2. After incubation, the medium was removed and replaced with 100 µL of fresh medium. Serial dilutions of the compounds were prepared in separate plates and added to the cells, starting from a concentration of 100 µM with twofold serial dilutions (final concentration range: 100–0.19 µM). The cells were then incubated for 72 h at 37 °C. At the end of the incubation period, 20 µL of thiazolyl blue tetrazolium bromide (MTT) solution (5 mg/mL, Sigma) was added to each well. After 4 h of incubation at 37 °C, 100 µL of 10% sodium dodecyl sulfate (SDS) in 0.01 M HCl was added to solubilize the formazan crystals, and the plates were incubated overnight at 37 °C. Cell viability was assessed by measuring the optical density (OD) at 540/630 nm using a Multiscan EX ELISA reader (Thermo Labsystems, Cheshire, WA, USA).
(§4) The inhibitory concentration that reduced cell growth by 50% (IC50) was determined from the dose–response curves. The percent inhibition was calculated using the formula100 − ((OD_sample − OD_medium control)/(OD_cell control − OD_medium control)) × 100
(§5) Dose–response curves were generated by plotting the percent inhibition against the logarithm of the compound concentrations and fitted using Prism5 software (Version 6, GraphPad Software Inc., San Diego, CA, USA). The IC50 values were derived from four independent experiments conducted in parallel for each cell line and are reported as the mean values.

[2] = test system: COLO 320/MDR-LRP multidrug-resistant human colonic adenocarcinoma cells; test: MTT antiproliferative assay, COLO 320; conditions: selectivity index; for SI CCD-19Lu/ COLO 320: ratio of IC50 CCD-19Lu / COLO 320; for SI COLO 205/ COLO 320: ratio of IC50 COLO 205 / COLO 320
Description: as §1, §2, §3, §4, §5

[3] = test system: CCD-19Lu non-cancerous human lung fibroblast cells; test: MTT antiproliferative assay, CCD-19Lu; conditions: cancer cells vs CCD-19Lu, from SI
Description: as §1, §2
Human colonic adenocarcinoma cell lines—doxorubicin-sensitive COLO 205 and multidrug-resistant COLO 320—as well as the non-cancerous human lung fibroblast cell line CCD-19Lu were used to evaluate the effects of the test compounds on cell proliferation. The assays were conducted in 96-well flat-bottomed microtiter plates. […] Cell viability was assessed by measuring the optical density (OD) at 540/630 nm using a Multiscan EX ELISA reader (Thermo Labsystems, Cheshire, WA, USA). […]

## C=Cc1cc(CO)cc2c1-c1ccc(O)c(C)c1CC2 [Compound 13]
[1]
  SI CCD-19Lu/ COLO 205: 1.87
[2]
  SI CCD-19Lu/ COLO 320: 1.97
  SI COLO 205/ COLO 320: 1.05

## C=Cc1cc(O)cc2ccc3c(C)c(O)ccc3c12 [Compound 6, dehydroeffusol]
[1]
  SI CCD-19Lu/ COLO 205: 1.58
[2]
  SI CCD-19Lu/ COLO 320: 1.63
  SI COLO 205/ COLO 320: 1.03

## C=Cc1cc2c(ccc3c(C)c(O)ccc32)cc1CO [Compound 2, tenuin B]
[1]
  SI CCD-19Lu/ COLO 205: 1.99
[2]
  SI CCD-19Lu/ COLO 320: 2.51
  SI COLO 205/ COLO 320: 1.26

## C=Cc1cc(O)cc2c1-c1cc(-c3c(O)cc4c(c3C=C)-c3ccc(O)c(C)c3CC4)c(O)c(C)c1CC2 [Compound 5, 1,1′-dimethyl-5,5′-divinyl-9,9′,10,10′-tetrahydro-[6,3′-biphenanthrene]-2,2′,7,7′-tetraol]
[1]
  SI CCD-19Lu/ COLO 205: 1.19
[3]
  selectivity towards tumor cells (in words): lacked selectivity
[2]
  SI CCD-19Lu/ COLO 320: 1.15
  SI COLO 205/ COLO 320: 0.97

## C=Cc1c(C)c(O)cc2c1-c1ccc(O)c(C)c1CC2 [Compound 11, juncusol]
[1]
  SI CCD-19Lu/ COLO 205: 1.39
[2]
  SI CCD-19Lu/ COLO 320: 1.23
  SI COLO 205/ COLO 320: 0.88

## C=Cc1cc(O)c(C)c2c1-c1ccc(O)c(C)c1CC2 [Compound 17, 2,7-dihydroxy-1,8-dimethyl-5-vinyl-9,10-dihydrophenanthrene]
[1]
  SI CCD-19Lu/ COLO 205: 1.50
[2]
  SI CCD-19Lu/ COLO 320: 1.85
  SI COLO 205/ COLO 320: 1.23

## C=Cc1c(C)c(O)cc2ccc3c(C)c(O)ccc3c12 [Compound 7, dehydrojuncusol]
[1]
  SI CCD-19Lu/ COLO 205: 1.49
[2]
  SI CCD-19Lu/ COLO 320: 0.93
  SI COLO 205/ COLO 320: 0.62

## C=Cc1c(C)c(O)cc2c1-c1ccc(OC)c(C)c1CC2 [Compound 16, compressin A]
[1]
  SI CCD-19Lu/ COLO 205: 0.78
[2]
  SI CCD-19Lu/ COLO 320: 1.46
  SI COLO 205/ COLO 320: 1.87

## C=Cc1c(CO)ccc2c1ccc1c(C)c(O)ccc12 [Compound 9]
[1]
  SI CCD-19Lu/ COLO 205: ≤0.75
[2]
  SI CCD-19Lu/ COLO 320: 1.77
  SI COLO 205/ COLO 320: ≥2.35

## C=Cc1cc(O)c(CO)c2c1-c1ccc(O)c(C)c1CC2 [Compound 3, 2,7-dihydroxy-8-hydroxymethyl-1-methyl-5-vinyl-9,10-dihydrophenanthrene]
[1]
  SI CCD-19Lu/ COLO 205: ≤0.97
[2]
  SI CCD-19Lu/ COLO 320: ≤0.97

## C=Cc1cc(O)cc2c1-c1ccc(O)c(C)c1CC2 [Compound 10, effusol]
[1]
  SI CCD-19Lu/ COLO 205: 1.82
[2]
  SI CCD-19Lu/ COLO 320: 1.93
  SI COLO 205/ COLO 320: 1.06

## C=Cc1cc(O)cc2c1-c1cc(-c3cc4c(c(C)c3O)CCc3cc(O)cc(C=C)c3-4)c(O)c(C)c1CC2 [Compound 19, effususin A]
[1]
  SI CCD-19Lu/ COLO 205: 1.72
[3]
  selectivity towards tumor cells (in words): lacked selectivity
[2]
  SI CCD-19Lu/ COLO 320: 1.09
  SI COLO 205/ COLO 320: 0.63

## C=Cc1cc(C(=O)O)cc2c1-c1ccc(O)c(C)c1CC2 [Compound 15]
[1]
  SI CCD-19Lu/ COLO 205: ≥2.20
[2]
  SI CCD-19Lu/ COLO 320: ≥2.10
  SI COLO 205/ COLO 320: 0.95

## C=Cc1cc(O)cc2c1-c1cc(-c3cc4c(c(C)c3O)CCc3cc(O)cc(C(C)OC)c3-4)c(O)c(C)c1CC2 (centres unmarked) [Compound 4, tenuin D]
[1]
  SI CCD-19Lu/ COLO 205: 1.31
[3]
  selectivity towards tumor cells (in words): lacked selectivity
[2]
  SI CCD-19Lu/ COLO 320: 0.63
  SI COLO 205/ COLO 320: 0.49

## C=Cc1cc(O)cc2c1-c1ccc(OC)c(C)c1CC2 [Compound 12]
[1]
  SI CCD-19Lu/ COLO 205: 0.83
[2]
  SI CCD-19Lu/ COLO 320: 1.13
  SI COLO 205/ COLO 320: 1.36

## C=Cc1c(CO)ccc2c1CCc1c-2ccc(O)c1C [Compound 18]
[1]
  SI CCD-19Lu/ COLO 205: 1.41
[2]
  SI CCD-19Lu/ COLO 320: 2.25
  SI COLO 205/ COLO 320: 1.59

## C=Cc1cc(C=O)cc2c1-c1ccc(O)c(C)c1CC2 [Compound 14]
[1]
  SI CCD-19Lu/ COLO 205: 1.16
[2]
  SI CCD-19Lu/ COLO 320: 1.68
  SI COLO 205/ COLO 320: 1.45

## C=Cc1c(C)c(O)cc2c1ccc1c(C)c(O)ccc12 [Compound 8, dehydrojuncuenin B]
[1]
  SI CCD-19Lu/ COLO 205: 1.10
[2]
  SI CCD-19Lu/ COLO 320: 1.27
  SI COLO 205/ COLO 320: 1.16
